# Reference: the supplement of paper PMC6411743
# Sequences of proteins named here, by UniProt entry; tags and fusion partners are left off. A change or cut given only in a name is not applied to a line headed by its entry.
# UniProt Q8NBQ5: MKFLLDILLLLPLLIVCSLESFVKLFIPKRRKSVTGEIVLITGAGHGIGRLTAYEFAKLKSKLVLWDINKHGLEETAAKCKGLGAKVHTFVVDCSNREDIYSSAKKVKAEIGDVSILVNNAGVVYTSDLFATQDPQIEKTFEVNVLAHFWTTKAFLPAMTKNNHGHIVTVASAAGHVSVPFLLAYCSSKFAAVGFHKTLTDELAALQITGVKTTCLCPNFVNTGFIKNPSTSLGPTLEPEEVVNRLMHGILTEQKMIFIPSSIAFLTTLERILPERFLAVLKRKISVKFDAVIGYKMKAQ
# UniProt O60610, whole entry: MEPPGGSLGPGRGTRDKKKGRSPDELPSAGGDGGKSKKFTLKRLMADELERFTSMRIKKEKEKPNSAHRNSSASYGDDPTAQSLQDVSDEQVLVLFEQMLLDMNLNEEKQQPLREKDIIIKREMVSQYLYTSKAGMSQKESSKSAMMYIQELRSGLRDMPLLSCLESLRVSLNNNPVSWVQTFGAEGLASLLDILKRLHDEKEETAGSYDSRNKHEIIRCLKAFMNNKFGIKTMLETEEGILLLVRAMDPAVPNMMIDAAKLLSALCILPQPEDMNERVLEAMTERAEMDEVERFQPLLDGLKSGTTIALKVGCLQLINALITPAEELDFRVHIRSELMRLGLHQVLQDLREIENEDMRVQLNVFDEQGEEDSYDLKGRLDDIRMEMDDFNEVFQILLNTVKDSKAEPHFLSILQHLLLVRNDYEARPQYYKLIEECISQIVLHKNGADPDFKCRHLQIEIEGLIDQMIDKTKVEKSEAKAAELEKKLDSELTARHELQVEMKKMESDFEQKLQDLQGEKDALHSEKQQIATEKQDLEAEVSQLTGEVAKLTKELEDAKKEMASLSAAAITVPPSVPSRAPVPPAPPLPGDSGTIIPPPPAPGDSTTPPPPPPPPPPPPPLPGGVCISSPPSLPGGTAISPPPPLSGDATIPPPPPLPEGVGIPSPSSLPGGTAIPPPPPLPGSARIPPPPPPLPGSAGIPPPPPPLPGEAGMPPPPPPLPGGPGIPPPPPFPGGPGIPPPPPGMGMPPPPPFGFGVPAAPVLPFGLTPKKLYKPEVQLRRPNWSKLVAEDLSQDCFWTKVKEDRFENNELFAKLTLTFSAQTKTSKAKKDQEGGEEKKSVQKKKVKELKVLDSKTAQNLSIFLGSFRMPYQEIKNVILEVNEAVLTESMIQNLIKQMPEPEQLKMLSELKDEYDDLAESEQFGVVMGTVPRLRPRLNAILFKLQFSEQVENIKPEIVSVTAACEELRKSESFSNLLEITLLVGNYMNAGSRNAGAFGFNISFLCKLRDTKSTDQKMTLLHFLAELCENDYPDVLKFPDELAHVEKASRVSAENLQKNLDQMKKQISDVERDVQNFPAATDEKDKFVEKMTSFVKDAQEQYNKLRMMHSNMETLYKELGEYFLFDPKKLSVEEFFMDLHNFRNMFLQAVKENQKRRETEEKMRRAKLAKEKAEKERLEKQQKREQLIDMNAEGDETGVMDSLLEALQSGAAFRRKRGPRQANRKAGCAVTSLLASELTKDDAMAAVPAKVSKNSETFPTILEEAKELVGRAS
# UniProt Q8N1F8: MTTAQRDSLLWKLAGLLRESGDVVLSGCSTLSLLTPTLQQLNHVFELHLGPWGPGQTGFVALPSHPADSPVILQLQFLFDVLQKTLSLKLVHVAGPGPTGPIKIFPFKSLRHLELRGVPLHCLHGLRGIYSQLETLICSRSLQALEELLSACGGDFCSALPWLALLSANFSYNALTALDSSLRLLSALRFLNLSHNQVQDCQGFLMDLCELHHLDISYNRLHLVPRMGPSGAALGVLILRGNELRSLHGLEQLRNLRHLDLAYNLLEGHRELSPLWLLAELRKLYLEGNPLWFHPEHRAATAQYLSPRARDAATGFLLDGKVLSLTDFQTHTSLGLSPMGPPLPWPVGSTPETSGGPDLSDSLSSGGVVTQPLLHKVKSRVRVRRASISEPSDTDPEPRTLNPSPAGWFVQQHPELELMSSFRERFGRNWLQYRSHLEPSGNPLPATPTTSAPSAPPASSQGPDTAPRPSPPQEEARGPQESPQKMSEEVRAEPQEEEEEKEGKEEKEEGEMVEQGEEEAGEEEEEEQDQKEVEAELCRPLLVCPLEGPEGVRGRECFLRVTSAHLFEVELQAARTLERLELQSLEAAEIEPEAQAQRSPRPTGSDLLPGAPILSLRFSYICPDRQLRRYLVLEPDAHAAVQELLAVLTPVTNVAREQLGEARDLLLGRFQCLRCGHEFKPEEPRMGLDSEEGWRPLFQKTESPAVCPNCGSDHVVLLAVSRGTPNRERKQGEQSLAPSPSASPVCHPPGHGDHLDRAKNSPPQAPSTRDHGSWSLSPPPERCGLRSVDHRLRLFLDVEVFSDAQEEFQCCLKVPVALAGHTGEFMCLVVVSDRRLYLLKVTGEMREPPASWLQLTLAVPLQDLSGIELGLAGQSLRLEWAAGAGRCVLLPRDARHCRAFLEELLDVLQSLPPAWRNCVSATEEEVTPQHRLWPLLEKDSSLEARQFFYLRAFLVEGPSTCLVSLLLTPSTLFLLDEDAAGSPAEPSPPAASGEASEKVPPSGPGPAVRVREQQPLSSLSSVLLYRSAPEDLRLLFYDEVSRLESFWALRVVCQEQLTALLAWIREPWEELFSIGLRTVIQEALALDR
# UniProt P31943: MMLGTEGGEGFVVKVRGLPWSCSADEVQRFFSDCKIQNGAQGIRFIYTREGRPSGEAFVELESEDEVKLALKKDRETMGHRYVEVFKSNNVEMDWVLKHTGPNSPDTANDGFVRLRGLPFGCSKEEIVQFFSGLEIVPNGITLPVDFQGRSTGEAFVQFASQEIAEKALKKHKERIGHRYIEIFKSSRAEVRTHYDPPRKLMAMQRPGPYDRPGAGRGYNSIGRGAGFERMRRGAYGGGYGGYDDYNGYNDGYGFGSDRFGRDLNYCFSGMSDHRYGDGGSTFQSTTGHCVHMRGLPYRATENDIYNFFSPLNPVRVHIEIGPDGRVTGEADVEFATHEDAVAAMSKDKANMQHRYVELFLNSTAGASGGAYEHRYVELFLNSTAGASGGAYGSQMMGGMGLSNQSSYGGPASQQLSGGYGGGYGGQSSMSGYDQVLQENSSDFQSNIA
# UniProt B0YJ81: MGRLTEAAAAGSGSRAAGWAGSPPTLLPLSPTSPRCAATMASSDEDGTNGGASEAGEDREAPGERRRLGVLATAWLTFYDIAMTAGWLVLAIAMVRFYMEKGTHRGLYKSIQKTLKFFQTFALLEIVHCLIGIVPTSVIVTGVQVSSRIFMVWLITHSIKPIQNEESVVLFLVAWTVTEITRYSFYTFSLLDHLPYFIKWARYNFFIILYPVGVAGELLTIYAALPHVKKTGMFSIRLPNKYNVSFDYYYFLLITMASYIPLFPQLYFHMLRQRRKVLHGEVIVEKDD
# UniProt O60573: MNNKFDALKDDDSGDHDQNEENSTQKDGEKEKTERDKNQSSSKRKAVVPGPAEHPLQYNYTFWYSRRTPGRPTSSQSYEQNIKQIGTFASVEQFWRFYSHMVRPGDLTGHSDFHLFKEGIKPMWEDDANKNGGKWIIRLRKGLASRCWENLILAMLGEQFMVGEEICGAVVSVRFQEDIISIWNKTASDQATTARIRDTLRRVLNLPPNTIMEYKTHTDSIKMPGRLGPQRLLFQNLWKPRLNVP
# UniProt A5YKK6, whole entry: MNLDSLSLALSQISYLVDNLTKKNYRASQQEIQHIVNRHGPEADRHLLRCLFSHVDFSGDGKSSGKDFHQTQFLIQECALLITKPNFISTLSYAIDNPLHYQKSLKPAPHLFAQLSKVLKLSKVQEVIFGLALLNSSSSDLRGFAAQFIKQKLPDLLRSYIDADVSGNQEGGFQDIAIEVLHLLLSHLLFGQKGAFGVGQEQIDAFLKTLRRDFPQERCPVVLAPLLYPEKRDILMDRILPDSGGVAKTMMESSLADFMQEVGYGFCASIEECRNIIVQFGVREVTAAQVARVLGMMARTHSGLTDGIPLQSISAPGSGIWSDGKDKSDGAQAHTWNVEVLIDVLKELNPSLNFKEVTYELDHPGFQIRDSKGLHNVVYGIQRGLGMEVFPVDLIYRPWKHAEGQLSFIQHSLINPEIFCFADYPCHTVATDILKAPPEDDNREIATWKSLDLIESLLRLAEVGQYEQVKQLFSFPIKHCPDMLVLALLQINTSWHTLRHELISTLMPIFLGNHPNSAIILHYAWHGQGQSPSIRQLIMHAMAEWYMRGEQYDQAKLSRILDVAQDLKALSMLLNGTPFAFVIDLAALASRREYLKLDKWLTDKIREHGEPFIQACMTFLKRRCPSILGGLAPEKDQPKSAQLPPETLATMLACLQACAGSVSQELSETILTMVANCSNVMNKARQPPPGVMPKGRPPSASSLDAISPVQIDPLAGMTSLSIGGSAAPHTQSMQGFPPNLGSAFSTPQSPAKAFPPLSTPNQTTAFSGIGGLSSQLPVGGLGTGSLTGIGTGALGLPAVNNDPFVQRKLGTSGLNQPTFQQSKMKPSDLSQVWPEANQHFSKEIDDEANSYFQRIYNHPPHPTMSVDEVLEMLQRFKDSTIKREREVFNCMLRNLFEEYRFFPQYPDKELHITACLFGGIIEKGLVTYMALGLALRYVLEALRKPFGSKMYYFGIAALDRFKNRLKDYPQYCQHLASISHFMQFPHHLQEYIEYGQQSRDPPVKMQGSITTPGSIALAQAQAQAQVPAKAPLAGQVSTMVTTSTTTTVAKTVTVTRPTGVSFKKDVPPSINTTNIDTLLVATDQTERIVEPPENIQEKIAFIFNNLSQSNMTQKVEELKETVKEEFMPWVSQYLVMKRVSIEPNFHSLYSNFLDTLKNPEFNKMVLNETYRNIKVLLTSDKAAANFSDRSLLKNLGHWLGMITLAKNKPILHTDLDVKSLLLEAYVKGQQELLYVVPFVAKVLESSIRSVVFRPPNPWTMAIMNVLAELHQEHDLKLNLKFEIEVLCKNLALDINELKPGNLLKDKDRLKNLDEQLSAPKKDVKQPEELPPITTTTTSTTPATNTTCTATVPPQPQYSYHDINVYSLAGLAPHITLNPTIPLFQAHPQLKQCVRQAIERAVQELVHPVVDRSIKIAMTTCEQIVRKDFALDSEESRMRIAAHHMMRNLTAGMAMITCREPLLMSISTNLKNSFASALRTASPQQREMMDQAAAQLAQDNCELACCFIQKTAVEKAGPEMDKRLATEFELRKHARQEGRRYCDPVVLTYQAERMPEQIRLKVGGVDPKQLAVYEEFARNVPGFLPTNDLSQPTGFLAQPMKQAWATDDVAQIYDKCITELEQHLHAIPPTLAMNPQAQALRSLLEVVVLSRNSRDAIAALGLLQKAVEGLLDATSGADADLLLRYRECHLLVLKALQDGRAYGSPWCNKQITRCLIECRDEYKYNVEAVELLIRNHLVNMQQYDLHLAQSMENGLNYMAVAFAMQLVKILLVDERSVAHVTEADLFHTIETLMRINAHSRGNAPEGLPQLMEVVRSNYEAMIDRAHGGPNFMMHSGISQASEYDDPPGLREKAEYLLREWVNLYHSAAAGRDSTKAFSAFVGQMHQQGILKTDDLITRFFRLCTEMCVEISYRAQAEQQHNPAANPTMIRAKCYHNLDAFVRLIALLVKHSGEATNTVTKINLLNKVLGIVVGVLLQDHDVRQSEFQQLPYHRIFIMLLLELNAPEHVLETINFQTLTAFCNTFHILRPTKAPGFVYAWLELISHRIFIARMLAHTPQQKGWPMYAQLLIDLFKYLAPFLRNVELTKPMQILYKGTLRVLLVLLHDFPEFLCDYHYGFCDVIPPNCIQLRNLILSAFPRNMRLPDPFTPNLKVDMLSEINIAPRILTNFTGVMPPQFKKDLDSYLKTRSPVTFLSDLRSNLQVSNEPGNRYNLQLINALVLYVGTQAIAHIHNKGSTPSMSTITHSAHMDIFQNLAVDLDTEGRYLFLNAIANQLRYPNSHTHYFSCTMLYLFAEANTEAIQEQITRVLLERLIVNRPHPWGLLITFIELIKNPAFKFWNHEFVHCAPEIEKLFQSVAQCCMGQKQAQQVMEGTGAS
# UniProt P24864, whole entry: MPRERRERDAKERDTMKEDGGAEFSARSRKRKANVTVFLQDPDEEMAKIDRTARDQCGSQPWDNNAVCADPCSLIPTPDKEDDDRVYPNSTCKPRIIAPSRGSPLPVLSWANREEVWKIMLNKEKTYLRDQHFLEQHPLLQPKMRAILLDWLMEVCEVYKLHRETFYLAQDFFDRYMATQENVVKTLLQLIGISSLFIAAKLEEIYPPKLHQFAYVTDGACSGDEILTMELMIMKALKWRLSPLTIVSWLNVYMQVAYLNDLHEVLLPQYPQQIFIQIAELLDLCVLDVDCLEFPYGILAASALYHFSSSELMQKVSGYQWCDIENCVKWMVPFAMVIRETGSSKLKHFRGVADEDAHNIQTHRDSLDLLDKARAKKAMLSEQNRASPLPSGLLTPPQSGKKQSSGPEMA
# ± gives the standard deviation of the averaged measurements. This is a selection; strong and weak results do not stand in their true shares.
# Compound: Nc1ncnc2c1ncn2[C@@H]1O[C@H](COP(=O)(O)OP(=O)(O)OP(=O)(O)O)[C@@H](O)[C@H]1O [adenosine triphosphate]
# Assay: NP40-soluble protein abundance relative to vehicle (solubility fold change) (ratio); higher = more soluble protein in presence of ATP
# Procedure, shortened: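 Data come from three independent experiments in which Dounce-homogenised Jurkat crude lysate was treated at eight concentrations from 0.1 to 10 mM. Treatment ran 10 min at room temperature and then 3 min at 37 °C, after which 0.8% NP40 and benzonase were added for 60 min at 4 °C before ultracentrifugation. The supernatant underwent TMT labelling and LC-MS/MS, and vsn-normalised intensities were expressed as fold change against the detergent-processed vehicle in each replicate.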
Target,NP40-soluble protein abundance (concentration: 1mM),NP40-soluble protein abundance (concentration: 2mM),NP40-soluble protein abundance (concentration: 4mM),NP40-soluble protein abundance (concentration: 6mM),NP40-soluble protein abundance (concentration: 8mM),NP40-soluble protein abundance (concentration: 10mM)
D6RCD0 and related entries (UniProt Q8NBQ5),0.991 ± 0.099,0.976 ± 0.035,0.997 ± 0.045,0.884 ± 0.11,0.965 ± 0.03,1.03 ± 0.02
A0A0G2JH68 (UniProt O60610),0.958 ± 0.024,0.959 ± 0.015,0.93 ± 0.022,0.977 ± 0.014,0.938 ± 0.029,0.948 ± 0.029
C9JQV3 and related entries (UniProt Q8N1F8),0.996 ± 0.045,1.03 ± 0.038,1.04 ± 0.013,0.982 ± 0.04,0.994 ± 0.097,1.01 ± 0.026
D6RAM1 and related entries (UniProt P31943),1.04 ± 0.015,1.03 ± 0.015,1.03 ± 0.021,1.03 ± 0.034,1.03 ± 0.025,1.02 ± 0.031
HACD1 (UniProt B0YJ81),1.056 ± 0.0071,1.06 ± 0.019,1.07 ± 0.051,1.05 ± 0.025,1.08 ± 0.038,1.12 ± 0.073
C9J066 and related entries (UniProt Q8N4C6),1.01 ± 0.024,0.984 ± 0.037,1.02 ± 0.03,1.05 ± 0.024,1.01 ± 0.023,1.02 ± 0.024
B5MCW3 and related entries (UniProt Q9H0E9),0.972 ± 0.06,0.964 ± 0.046,0.957 ± 0.083,1.03 ± 0.1,0.976 ± 0.059,0.988 ± 0.044
UniProt A0MZ66,1 ± 0.023,0.994 ± 0.024,0.9772 ± 0.0021,1.05 ± 0.034,0.974 ± 0.049,0.98 ± 0.049
B8ZZ50 and related entries (UniProt O60573),1.04 ± 0.075,1.07 ± 0.071,1.1 ± 0.068,1.15 ± 0.0016,1.16 ± 0.058,1.13 ± 0.082
UniProt B4DLN1,0.998 ± 0.026,0.9549 ± 0.0023,0.9743 ± 0.0057,0.921 ± 0.02,0.973 ± 0.04,1.02 ± 0.05
D6RD24 and related entries (UniProt Q7Z6J8),0.931 ± 0.082,0.973 ± 0.13,1.02 ± 0.11,1.01 ± 0.14,0.971 ± 0.12,0.991 ± 0.069
UniProt A5YKK6 and related entries,1.21 ± 0.017,1.21 ± 0.037,1.26 ± 0.049,1.27 ± 0.078,1.35 ± 0.085,1.34 ± 0.087
C9J2U0 and related entries (UniProt P24864),1.03 ± 0.023,1 ± 0.025,1.03 ± 0.042,0.939 ± 0.028,1.18 ± 0.1,1.13 ± 0.089
B9EGE7 and related entries (UniProt Q8TCN5),0.839 ± 0.11,0.911 ± 0.11,0.937 ± 0.063,0.936 ± 0.078,0.911 ± 0.13,0.963 ± 0.061
A6NFX8 and related entries (UniProt Q9UKK9),1.04 ± 0.088,1 ± 0.059,0.98 ± 0.052,0.961 ± 0.045,1 ± 0.049,0.973 ± 0.036
